In US20160216264A1 (WASHINGTON UNIVERSITY, published 2016):

Tests used:
[1] = molecular target: human myo-inositol oxygenase (MIOX) (human); experiment: Western blot of human kidney homogenate
[2] = molecular target: human myo-inositol oxygenase (MIOX) (human); experiment: Western blot of normal human kidney homogenate
[3] = molecular target: recombinant MIOX (rMIOX), thrombin-cleaved from GST-MIOX (human); experiment: Western blot

Measured: binding

B1: mouse monoclonal anti-MIOX antibody 12H06 (antibody, IgG2b, V domains shown)
VH: QVQLQQPGAELVRPGTSVKLSCKASGYTFTSYWMHWVKQRPGQGLEWIGLIDPSDSYTNYNQKFKGKATLTVDTSSSTASMQLSSLTSEDSAVYYCVRTYYHSSYFFAYWGQGTLVTVSS
VL: DIVVTQSPASFAVSLGQRATISCRASKSVSTSGYSYINWYQQKPGQPPKLLIYLASNLESGVPARFSGSGSGTDFTLNIHPVEEEDAATYYCQHSRELPLTFGAGTRLELK
notes: the VH entry runs a few residues into CH1; also called mAb 12H06
binds: all assays above

These are yes or no findings as the source states them, for the method shown. A result given as binding can be weak or reduced; the word gives no strength.
